AC50 data for 63 compounds are collected here from PubChem BioAssay AID493014 (National Center for Advancing Translational Sciences (NCATS), 2011).

The assay is described as follows: qHTS Assay to Find Inhibitors of Chronic Active B-Cell Receptor Signaling. The settings on record: ABC-DLBCL IkBa-CBG/CBR reporter, luminescence ratio (green luciferase fused to IkBa over red control in TMD8 lymphoma cells), 4 h. The method, boiled down:
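Compounds up to 46 uM were incubated four hours with TMD8 cells whose green CBG68 luciferase is fused to IkappaBalpha; red CBR luminescence normalised the signal, and concentration-effect curves were fitted to fusion, red and ratio data.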

Setting [1] is: measured here: CBR red luminescence, cell number.
Setting [2] is: measured here: IkBa-CBG green luminescence.

The other results are listed elsewhere or left out. Further columns of the screen follow, without active or inactive calls. Compounds called inactive in the main read-out are mostly missing here. Potencies come from curve fits of mixed quality, noted in brackets.

Turning to `O=c1c2ccccc2cnn1Cc1n[nH]c(=S)n1-c1ccccc1Cl`, the AC50 under setting [1] is 32.6 µM [rising, single point]. For `Fc1ccc(/C=N/NC(=S)Nc2ccc(Cl)cc2Cl)cc1`, the half-maximal activity concentration (AC50) under setting [1] was 20 µM [rising, single point]. For the compound `Cc1c(Cl)c([N+](=O)[O-])nn1CC(=O)N1CCc2ccccc2C1`, the concentration at half-maximal activity (AC50) under setting [1] was 11.2 µM [falling, partial curve, poor fit].

Take `O=C1CC(Cc2ccc(Cl)cc2)C(=O)N1c1cc(Cl)ccn1` (stereo not given): the concentration at half-maximal activity (AC50) under setting [1] is 4.47 µM [rising, partial curve, poor fit]. Turning to `Cc1[nH]c(=O)[nH]c(=O)c1/C=N/NC(=O)[C@H](CC(C)C)NC(=O)OC(C)(C)C`, the concentration at half-maximal activity (AC50) under setting [1] is 29.1 µM [falling, single point]. Regarding `Cn1c(=O)c2c(nc(SCc3ccccc3F)n2C)n(C)c1=O`, the concentration at half-maximal activity (AC50) under setting [1] was 3.55 µM [falling, partial curve].

As to `COc1cc(N)ccc1NC(=O)c1cc2ccccc2o1`, the concentration at half-maximal activity (AC50) under setting [1] is 35.5 µM [falling, single point]. Regarding `Cc1cccc(CN2C(=O)/C(=C\c3ccc(C(=O)NCCN4CCOCC4)cc3)Sc3ccccc32)c1`, the AC50 under setting [1] was 1.26 µM [rising, full curve]. As for `CCNC(=O)CN(c1ccc(C)cc1)S(=O)(=O)c1ccccc1`, under setting [1], the AC50 was 23.1 µM [rising, single point]. Regarding `CCS(=O)(=O)Nc1ccc(C2=NN(C(=O)c3ccco3)C(c3ccc(C)cc3)C2)cc1` (stereo not given), the AC50 under setting [1] is 8.91 µM [falling, partial curve, poor fit]. `O=C1c2ccccc2C(=O)N1/N=C/c1ccc(O)c(O)c1`: under setting [1], the half-maximal activity concentration (AC50) was 20.6 µM [falling, single point]. As for `O=C(c1cc(-c2cccs2)on1)N1CCc2ccccc2C1`, the half-maximal activity concentration (AC50) under setting [1] is 14.6 µM [falling, single point]. In the case of `CCN1C(=O)[C@H]2[C@@H](c3ccc(-c4cccc(Cl)c4)c(OC)c3)N[C@@](Cc3ccccc3)(C(=O)OC)[C@H]2C1=O`, the AC50 under setting [2] was 6.51 µM [rising, partial curve, poor fit]. For the compound `Cc1[nH]n(-c2nc(-c3cccc([N+](=O)[O-])c3)cs2)c(=O)c1C`, under setting [1], the half-maximal activity concentration (AC50) is 32.6 µM [falling, single point]. Regarding `COc1ccc(OC)c(N/C=C/C(=O)c2ccc(OC)c(OC)c2)c1`, the AC50 under setting [1] was 5.62 µM [rising, full curve].

With `CCOC(=O)c1[nH]c(C)c(C(=O)N2CCc3ccccc32)c1C`, the AC50 by setting is: under setting [1], 10 µM [rising, partial curve]; under setting [2], 5.62 µM [falling, partial curve].

`N#Cc1c(/N=C/c2ccccc2)oc(-c2ccccc2)c1-c1ccccc1`: the half-maximal activity concentration (AC50) under setting [1] was 32.6 µM [falling, partial curve, poor fit]. On the same count and under the same terms, to `O=C(O)CCN1C(=O)/C(=C/c2ccc(-c3nc4ccccc4s3)o2)SC1=S` belongs 0.891 µM [falling, full curve]. Take `CCOC(=O)Cc1[nH]nc2c1C(c1ccsc1)C(C#N)=C(N)O2` (stereo not given): the AC50 under setting [1] was 20 µM [falling, single point]. Turning to `COc1ccc(-c2c(C)nn3c(NC4CCCC4)cc(C)nc23)cc1OC`, under setting [1], the AC50 was 6.31 µM [falling, full curve]. As for `Cc1ccccc1CS(=O)(=O)c1nnc([C@H](Cc2ccccc2)NC(=O)OC(C)(C)C)o1`, the AC50 under setting [1] was 3.26 µM [falling, partial curve, poor fit]. Take `Cc1ccc(NC(=O)CSc2cn[nH]n2)cc1`: under setting [1], the AC50 was 11.2 µM [falling, partial curve].

Regarding `Cc1sc(NC(=O)CSc2nnc3scc(-c4ccccc4)n23)c(C#N)c1C`, the AC50 under setting [1] was 0.103 µM [falling, full curve, poor fit]. Still for that read-out and setting: to `COc1ccc(-n2c(Cc3cccn3C)nnc2SCC(=O)Nc2cc(Cl)ccc2OC)cc1` belongs 29.1 µM [falling, single point]; to `Cc1ccc2c(c1)C(=O)N1[C@H]3c4cc(Cl)ccc4OC[C@@H]3[C@H](c3ccccc3)[C@]1(C)C(=O)N2`, 2.06 µM [falling, full curve]; to `CCn1c(NC(=O)Nc2ccccc2OC)nc2ccccc21`, 12.6 µM [falling, single point]. On to `O=C(O)c1ccc(N/N=C/C2=C(N3CCOCC3)C(=C\c3ccccc3)/CC2)cc1`, for which the concentration at half-maximal activity (AC50) under setting [1] was 2.51 µM [falling, full curve]. In the case of `Cc1ccnc2ccc(-c3nc4ccccc4o3)cc12`, under setting [1], the concentration at half-maximal activity (AC50) is 1 µM [rising, full curve, poor fit]. Same read-out and setting: to `Cc1cc(OCC(=O)NCc2ccccn2)c2c(C)c(C)c(=O)oc2c1` belongs 5.62 µM [rising, partial curve, poor fit]; to `O=C1NC(=O)/C(=C/c2cccc3ccccc23)S1`, 1.26 µM [rising, full curve, poor fit]; to `CN1c2ccccc2C(O)=C(C(=S)Nc2ccccc2)S1(=O)=O`, 16.4 µM [falling, single point].

`N#CCc1nn(-c2ccccc2)c2ncnc(N)c12`: the AC50 under setting [1] was 3.98 µM [falling, partial curve]. Still for that read-out and setting: to `CC(=O)N1CCN(c2ccc(NC(=O)C(C)Oc3ccc(Cl)cc3Cl)cc2)CC1` (stereo not given) belongs 32.6 µM [falling, single point]; to `C=CCC[C@@H](Cc1ccc(F)cc1)C(=O)OC[C@@H](Cc1c[nH]c2ccccc12)NC(=O)[C@@H](CC=C)CC(=O)NCCO`, 32.6 µM [falling, single point]; to `O=C1CN(c2ccccc2)C(=S)N1C(=O)c1ccccc1`, 10 µM [falling, partial curve, poor fit]. Consider `CN1C(=O)c2ccccc2Sc2ccc(NC(=O)COc3ccc(Cl)cc3)cc21`, for which the AC50 under setting [1] was 10 µM [falling, partial curve, poor fit].

On to `Cc1ccc2nc(-c3ccc(NC(=O)COC(=O)c4cncc(Br)c4)cc3)sc2c1`, for which the half-maximal activity concentration (AC50) under setting [1] was 0.461 µM [rising, full curve, poor fit].

Consider `CCCCC(=O)Nc1cccc(-c2cn3ccccc3n2)c1`, for which the AC50 under setting [1] was 8.91 µM [rising, partial curve, poor fit]. With `COc1ccc(-c2cn3cccnc3n2)cc1Br`, the AC50 under setting [1] is 10.3 µM [rising, single point].

In the case of `Cc1nn(-c2ccccc2)c2sc(C(=O)N3CCOCC3)cc12`, the AC50 under setting [1] is 18.4 µM [falling, partial curve, poor fit]. As to `O=C(CSC1CN(C(c2ccccc2)c2ccccc2)C1)N/N=C/c1ccc(Cl)cc1Cl`, under setting [1], the AC50 was 0.794 µM [falling, full curve, poor fit].

In the case of `NC(=O)c1ccc(-c2nnc(Nc3ccc(S(N)(=O)=O)cc3)c3ccccc23)cc1`, under setting [1], the AC50 was 22.4 µM [falling, single point]. Consider `O=S(=O)(CC(CN1CCCC1)N1CCCC1)c1ccc2ccccc2c1` (stereo not given), for which the concentration at half-maximal activity (AC50) under setting [1] was 0.206 µM [falling, full curve]. In the case of `COC(=O)c1cc(S(=O)(=O)N(C)c2ccc(C)c(C)c2)c[nH]1`, the AC50 under setting [1] was 3.55 µM [rising, partial curve]. For `O=C(Nc1cccnc1)c1cc2cc(Br)ccc2o1`, the concentration at half-maximal activity (AC50) under setting [1] was 11.2 µM [falling, partial curve]. As to `Cn1nc(C(=O)Nc2cccc(Cl)c2)cc1C(=O)Nc1cccc(Cl)c1`, the AC50 under setting [1] was 35.5 µM [rising, single point]. The same measure, in the same setting: to `CC(=O)N(C1=C(N2CCOCC2)C(=O)c2ccccc2C1=O)c1ccc(C(=O)O)cc1` belongs 35.5 µM [falling, single point]. For the compound `COc1ccc(NC(=O)c2cc(C)on2)cc1OC`, the concentration at half-maximal activity (AC50) under setting [1] is 32.6 µM [falling, single point]. On the same count and under the same terms, the value for `O=C(NCCc1ccccc1)Oc1ccc(Cl)cc1` was 11.2 µM [falling, partial curve, poor fit]. Same read-out and setting: the value for `c1ccc(OCCOCCN2CCN(C(c3ccccc3)c3ccccc3)CC2)cc1` was 23.1 µM [falling, single point]; that for `S=C(NCC1CCCO1)N1CCN(c2ccccc2)CC1` (stereo not given) was 35.5 µM [rising, single point].

`NC(=O)C1(N2CCCCC2)CCN(c2nc(-c3ccccc3)cs2)CC1`: the AC50 under setting [1] is 32.6 µM [rising, partial curve, poor fit]. For `CC1(C)C2CCC(C2)C1(C)N=C1OC(CCl)CS1` (stereo not given), the AC50 under setting [1] was 0.794 µM [rising, full curve, poor fit]. For the compound `COc1ccc(C(=O)c2c(O)cc(-c3ccc(OC)cc3)oc2=O)cc1`, the AC50 under setting [1] was 9.2 µM [falling, partial curve, poor fit]. On to `Cc1ccccc1N1CCN(C(=O)CN2C(=O)c3ccccc3C2=O)CC1`, for which the concentration at half-maximal activity (AC50) under setting [1] is 0.146 µM [rising, full curve, poor fit].

Regarding `CCOC(=O)c1cc(-c2ccc(OC)cc2)nc2c1c(C)nn2CCC(N)=S`, the AC50 under setting [1] was 28.2 µM [falling, single point]. Take `COc1ccccc1C(=O)C1CCCN(C(=O)c2ccc3c(c2)OCCO3)C1` (stereo not given): the concentration at half-maximal activity (AC50) by setting is: under setting [1], 35.5 µM [falling, single point]; under setting [2], 11.2 µM [rising, partial curve, poor fit]. Regarding `COc1ccc(C)c2sc(=NC(=O)c3cccc(N4C(=O)CCC4=O)c3)n(C)c12`, under setting [1], the AC50 was 7.94 µM [falling, partial curve]. Consider `COC(=O)CCCC1=CC2=C(c3ccccc3)C(=O)C(C)(OC(=O)C3CCCC3)C(=O)C2=CN1c1ccccc1` (stereo not given), for which the AC50 under setting [1] was 12.6 µM [rising, partial curve]. Turning to `OCCC1CCCCN1CC(O)COCc1ccc(Cl)cc1` (stereo not given), the concentration at half-maximal activity (AC50) under setting [1] is 12.6 µM [rising, partial curve, poor fit].

For the compound `CC(C)[C@H](NC(=O)c1ccccc1F)C(=O)OCC(=O)NC1CC1`, under setting [1], the concentration at half-maximal activity (AC50) was 0.517 µM [rising, full curve, poor fit]. Regarding `CCOC(=O)C1CCN(C(C)=C2C(=O)c3ccccc3C2=O)CC1`, under setting [1], the concentration at half-maximal activity (AC50) is 29.1 µM [rising, single point]. Regarding `Cc1cc([N+](=O)[O-])ccc1N`, the half-maximal activity concentration (AC50) under setting [1] was 29.1 µM [rising, single point].
